In patent publication US20260209193A1, “NOVEL INHIBITORS OF DNA DAMAGE RESPONSES FOR CANCER THERAPY” (The Regents of the University of California, priority 2022, published 2026):
Some entries share one result that the patent states for a list of compounds.

Amino acid sequences for entries named in this document (tags omitted). A change or cut given only in a name is not applied to a line headed by its entry.
UniProt P09874, whole entry, species assumed: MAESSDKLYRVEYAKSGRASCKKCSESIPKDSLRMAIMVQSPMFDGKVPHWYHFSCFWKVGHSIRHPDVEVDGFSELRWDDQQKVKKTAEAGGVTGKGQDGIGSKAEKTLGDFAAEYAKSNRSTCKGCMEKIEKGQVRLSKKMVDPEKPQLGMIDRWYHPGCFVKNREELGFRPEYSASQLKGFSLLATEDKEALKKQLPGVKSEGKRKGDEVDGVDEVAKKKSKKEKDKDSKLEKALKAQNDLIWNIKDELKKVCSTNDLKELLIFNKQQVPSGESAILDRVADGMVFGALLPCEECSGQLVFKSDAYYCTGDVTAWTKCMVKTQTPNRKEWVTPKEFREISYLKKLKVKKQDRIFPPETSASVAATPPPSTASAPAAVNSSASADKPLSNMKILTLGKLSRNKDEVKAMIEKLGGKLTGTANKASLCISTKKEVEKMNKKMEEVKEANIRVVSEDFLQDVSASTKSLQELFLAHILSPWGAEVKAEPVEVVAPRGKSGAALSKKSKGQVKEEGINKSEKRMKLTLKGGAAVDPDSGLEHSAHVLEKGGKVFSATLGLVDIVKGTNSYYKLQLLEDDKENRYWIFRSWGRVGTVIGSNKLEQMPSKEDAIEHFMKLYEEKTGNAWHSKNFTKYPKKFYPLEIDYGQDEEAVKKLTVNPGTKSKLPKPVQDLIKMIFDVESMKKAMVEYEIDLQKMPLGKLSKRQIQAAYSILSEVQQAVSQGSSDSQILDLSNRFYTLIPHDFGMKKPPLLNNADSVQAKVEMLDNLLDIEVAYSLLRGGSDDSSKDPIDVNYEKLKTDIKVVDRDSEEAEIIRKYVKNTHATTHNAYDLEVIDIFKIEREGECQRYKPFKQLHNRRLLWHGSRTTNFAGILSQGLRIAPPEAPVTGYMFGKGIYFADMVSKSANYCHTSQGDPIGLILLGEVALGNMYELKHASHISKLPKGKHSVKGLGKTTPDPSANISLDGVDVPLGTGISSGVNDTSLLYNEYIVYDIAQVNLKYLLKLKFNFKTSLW
UniProt Q13535: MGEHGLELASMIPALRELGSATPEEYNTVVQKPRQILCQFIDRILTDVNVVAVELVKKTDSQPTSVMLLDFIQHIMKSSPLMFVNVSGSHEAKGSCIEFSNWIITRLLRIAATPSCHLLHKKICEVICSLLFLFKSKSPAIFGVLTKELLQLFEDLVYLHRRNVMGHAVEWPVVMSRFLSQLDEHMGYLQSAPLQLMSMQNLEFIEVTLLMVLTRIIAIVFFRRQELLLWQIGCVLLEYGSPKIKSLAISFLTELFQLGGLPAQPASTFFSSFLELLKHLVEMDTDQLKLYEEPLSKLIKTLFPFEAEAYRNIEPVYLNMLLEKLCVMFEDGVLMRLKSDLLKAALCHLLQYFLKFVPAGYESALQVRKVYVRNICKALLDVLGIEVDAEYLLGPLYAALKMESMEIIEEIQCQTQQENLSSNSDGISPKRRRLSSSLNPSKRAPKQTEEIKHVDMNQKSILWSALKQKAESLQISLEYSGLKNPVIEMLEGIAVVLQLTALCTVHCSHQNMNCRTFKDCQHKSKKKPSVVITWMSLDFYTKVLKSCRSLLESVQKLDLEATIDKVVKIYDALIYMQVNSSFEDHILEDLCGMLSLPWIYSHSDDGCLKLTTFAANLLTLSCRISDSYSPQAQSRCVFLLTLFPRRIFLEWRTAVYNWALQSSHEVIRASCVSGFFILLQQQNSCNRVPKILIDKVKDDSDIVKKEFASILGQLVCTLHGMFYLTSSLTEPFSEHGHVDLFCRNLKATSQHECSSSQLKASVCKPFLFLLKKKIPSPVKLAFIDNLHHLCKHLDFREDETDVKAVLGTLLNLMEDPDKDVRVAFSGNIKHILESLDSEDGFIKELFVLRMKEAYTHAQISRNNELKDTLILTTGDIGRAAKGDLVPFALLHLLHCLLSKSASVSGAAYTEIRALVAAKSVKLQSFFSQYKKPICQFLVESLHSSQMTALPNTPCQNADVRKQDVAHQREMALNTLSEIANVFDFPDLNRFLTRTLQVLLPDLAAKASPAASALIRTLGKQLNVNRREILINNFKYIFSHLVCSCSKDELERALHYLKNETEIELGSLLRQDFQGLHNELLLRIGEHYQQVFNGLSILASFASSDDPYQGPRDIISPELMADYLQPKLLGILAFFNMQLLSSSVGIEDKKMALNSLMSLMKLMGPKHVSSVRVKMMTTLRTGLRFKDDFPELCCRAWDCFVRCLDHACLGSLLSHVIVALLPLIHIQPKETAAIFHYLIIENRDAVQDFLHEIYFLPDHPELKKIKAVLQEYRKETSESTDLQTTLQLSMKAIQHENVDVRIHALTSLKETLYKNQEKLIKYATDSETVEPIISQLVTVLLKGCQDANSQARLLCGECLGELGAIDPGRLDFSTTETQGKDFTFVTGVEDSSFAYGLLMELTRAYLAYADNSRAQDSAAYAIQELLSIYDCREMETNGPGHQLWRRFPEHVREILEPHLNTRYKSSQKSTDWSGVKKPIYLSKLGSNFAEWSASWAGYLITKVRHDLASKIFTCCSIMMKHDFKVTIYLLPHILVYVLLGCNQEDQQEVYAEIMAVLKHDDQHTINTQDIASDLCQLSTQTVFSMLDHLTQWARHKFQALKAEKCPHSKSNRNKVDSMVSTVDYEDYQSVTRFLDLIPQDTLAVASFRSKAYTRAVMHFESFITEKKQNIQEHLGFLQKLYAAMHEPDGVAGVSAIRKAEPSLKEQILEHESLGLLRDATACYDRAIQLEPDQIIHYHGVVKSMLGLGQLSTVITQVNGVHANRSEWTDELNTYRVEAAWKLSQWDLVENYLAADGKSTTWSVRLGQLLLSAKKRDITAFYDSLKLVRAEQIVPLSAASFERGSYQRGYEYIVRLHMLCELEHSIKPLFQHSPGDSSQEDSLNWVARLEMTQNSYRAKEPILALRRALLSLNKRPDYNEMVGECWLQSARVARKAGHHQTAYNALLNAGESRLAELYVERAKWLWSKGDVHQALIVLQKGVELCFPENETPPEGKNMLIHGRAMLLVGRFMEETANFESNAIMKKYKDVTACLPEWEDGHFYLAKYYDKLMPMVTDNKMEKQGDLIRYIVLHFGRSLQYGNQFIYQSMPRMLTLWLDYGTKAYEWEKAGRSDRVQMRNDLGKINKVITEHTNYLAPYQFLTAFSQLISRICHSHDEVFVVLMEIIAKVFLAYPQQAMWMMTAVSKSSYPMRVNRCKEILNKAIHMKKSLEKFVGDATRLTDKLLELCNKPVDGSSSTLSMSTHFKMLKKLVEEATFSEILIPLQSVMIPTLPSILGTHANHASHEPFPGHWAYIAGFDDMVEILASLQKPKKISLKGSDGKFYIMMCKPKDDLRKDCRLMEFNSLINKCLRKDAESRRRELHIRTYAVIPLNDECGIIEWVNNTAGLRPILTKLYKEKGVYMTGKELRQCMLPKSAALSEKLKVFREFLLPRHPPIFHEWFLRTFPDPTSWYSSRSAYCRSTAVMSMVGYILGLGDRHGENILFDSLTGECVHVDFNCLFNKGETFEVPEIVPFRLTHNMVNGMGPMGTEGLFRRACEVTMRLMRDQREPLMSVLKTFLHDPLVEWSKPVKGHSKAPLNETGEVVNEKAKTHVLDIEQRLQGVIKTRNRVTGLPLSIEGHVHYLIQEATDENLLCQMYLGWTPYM

How the values were obtained:
PARP1 = molecular target: T1, PARP1 (Homo sapiens, UniProt P09874); assay: PARP1 trapping, chromatin fractionation (chromatin-bound fraction); assay type: cell-based; settings: PC3 cells
T1 construct: endogenous in cells; host or cells: PC3
From the text: The trapped PARP1 forms a toxic lesion and stalls the progress of replication forks. The replication fork collapses in BRCA1/2-deficient cancer cells, and then results in cell death. […] Six cancer cell lines were used in this assay, including two breast cancer cell lines, BRCA1-mutunt SUM149PT-BRCA1mut and SUM149PT-BRCA1rev where deleterious BRCA1 mutation is reverted to form a functional BRCA1, two ovarian cancer cell lines, BRCA1-null UWB1.289 and UWB1.289+BRCA1, a stable cell line in which wild-type BRCA1 function has been restored, and two prostate cancer cell lines, enzalutamide resistant C4-2B/MR which is homologous recombination (HR)-deficient due to Rad51 mutation, and enzalutamide insensitive PC3 which is HR-proficient.

ATR = molecular target: T2, ATR (Homo sapiens, UniProt Q13535); assay: ATR-mediated signaling: phosphorylation of Rad17 Ser 645 and CHK1 Ser 345 in cells; assay type: cell-based; settings: 1 μM and 2 μM; PC3 cells
T2 construct: endogenous in cells; host or cells: PC3, C4-2B/MR, SUM149PT-BRCA1rev, UWB1.289+BRCA1, MDA-MB-231
Protocol: PARP inhibitor-resistant cells are increasingly dependent on ATR for survival, and ATR inhibition disrupts restored HR and fork protection pathways in PARP inhibitor resistant BRCA-deficient cancer cells. For ATR kinase in vitro assays, ATR was immunoprecipitated with 3 μg of anti-ATR antibody (Bethyl Laboratories, A300-137A) from 1 mg of cell lysate. […] The IC50 was determined by the enzyme profiling service of Eurofins Cerep (France). […] The phosphorylation of CHK1 at Ser 345 sites was used as a bio-marker of ATR-mediated signaling pathway. The phosphorylation of Rad17 at Ser 645, which is a substrate of ATR, was also examined.
ATR inhibition was assessed in C4-2B/MR cells. Considering ATM is a homologous protein of ATR, we also detected the effect of JC046 analogs on the phosphorylation of KAP1 at Ser 824 and CHK2 at Thr 68 sites, which were used as markers of ATM signaling pathway.

SMILES: CCNCCOc1ccc(C(=O)NC2C/C(=C\c3ccc(F)c(F)c3)C(=O)/C(=C/c3ccc(F)c(F)c3)C2)cc1 (stereo not drawn) [JCS140, N-(3,5-Bis((E)-3,4-difluorobenzylidene)-4-oxocyclohexyl)-4-(2-(ethylamino)ethoxy)benzamide]
- PARP1 trapped on DNA lesions (PARP1; 0.5 μM): trapped
- Olaparib or UV induced phosphorylation of Rad17 at Ser 645 and CHK1 at Ser 345 (ATR): inhibited

SMILES: O=C1/C(=C/c2cc(F)c(F)c(F)c2)CC(NC(=O)c2ccc(OCCN3CCCCC3)cc2)C/C1=C\c1cc(F)c(F)c(F)c1 (stereo not drawn) [JCS141, N-(4-Oxo-3,5-bis((E)-3,4,5-trifluorobenzylidene)cyclohexyl)-4-(2-(piperidin-1-yl)ethoxy)benzamide]
- PARP1 trapped on DNA lesions (PARP1; 0.3 μM): trapped
- Olaparib induced phosphorylation of Rad17 at Ser 645 and CHK1 at Ser 345 (ATR): inhibited

SMILES: CCN1CCC[C@H]1CNc1ccc(C(=O)NC2C/C(=C\c3cc(F)c(F)c(F)c3)C(=O)/C(=C/c3cc(F)c(F)c(F)c3)C2)cc1 (stereo partly drawn) [JCS142, 4-((((S)-1-Ethylpyrrolidin-2-yl)methyl)amino)-N-(4-oxo-3,5-bis((E)-3,4,5-trifluorobenzylidene)-cyclohexyl)benzamide]
- PARP1 trapped on DNA lesions (PARP1; 0.3 μM): trapped
- Olaparib induced phosphorylation of Rad17 at Ser 645 and CHK1 at Ser 345 (ATR): inhibited

SMILES: COCCN(CCOC)CCOc1ccc(C(=O)NC2C/C(=C\c3cc(F)c(F)c(F)c3)C(=O)/C(=C/c3cc(F)c(F)c(F)c3)C2)cc1 (stereo not drawn) [JCS143, 4-(2-(Bis(2-methoxyethyl)amino)ethoxy)-N-(4-oxo-3,5-bis((E)-3,4,5-trifluorobenzylidene)cyclo-hexyl)benzamide]
- PARP1 trapped on DNA lesions (PARP1; 0.3 μM): trapped
- Olaparib induced phosphorylation of Rad17 at Ser 645 and CHK1 at Ser 345 (ATR): inhibited

SMILES: CCN(CC)CCOc1ccc(C(=O)NC2C/C(=C\c3cc(F)c(F)c(F)c3)C(=O)/C(=C/c3cc(F)c(F)c(F)c3)C2)cc1 (stereo not drawn) [JCS144, 4-(2-(Diethylamino)ethoxy)-N-(4-oxo-3,5-bis((E)-3,4,5-trifluorobenzylidene)cyclohexyl)benzamide]
- PARP1 trapped on DNA lesions (PARP1; 0.3 μM): trapped
- Olaparib induced phosphorylation of Rad17 at Ser 645 and CHK1 at Ser 345 (ATR): inhibited

SMILES: CCN1CCC[C@H]1CNc1ccc(C(=O)NC2C/C(=C\c3ccc(F)cc3F)C(=O)/C(=C/c3ccc(F)cc3F)C2)cc1 (stereo partly drawn) [JCS145, N-(3,5-Bis((E)-2,4-difluorobenzylidene)-4-oxocyclohexyl)-4-((((S)-1-ethylpyrrolidin-2-yl)methyl)-amino)benzamide]
- PARP1 trapped on DNA lesions (PARP1; 0.3 μM): trapped
- Olaparib induced phosphorylation of Rad17 at Ser 645 and CHK1 at Ser 345 (ATR): inhibited

SMILES: COCCN(CCOC)CCOc1ccc(C(=O)NC2C/C(=C\c3ccc(F)cc3F)C(=O)/C(=C/c3ccc(F)cc3F)C2)cc1 (stereo not drawn) [JCS146, N-(3,5-Bis((E)-2,4-difluorobenzylidene)-4-oxocyclohexyl)-4-(2-(bis(2-methoxyethyl)amino)ethoxy)-benzamide]
- PARP1 trapped on DNA lesions (PARP1; 0.3 μM): trapped
- Olaparib induced phosphorylation of Rad17 at Ser 645 and CHK1 at Ser 345 (ATR): inhibited

SMILES: CCN(CC)CCOc1ccc(C(=O)NC2C/C(=C\c3ccc(F)cc3F)C(=O)/C(=C/c3ccc(F)cc3F)C2)cc1 (stereo not drawn) [JCS147, N-(3,5-Bis((E)-2,4-difluorobenzylidene)-4-oxocyclohexyl)-4-(2-(diethylamino)ethoxy)benzamide]
- PARP1 trapped on DNA lesions (PARP1; 0.3 μM): trapped
- Olaparib induced phosphorylation of Rad17 at Ser 645 and CHK1 at Ser 345 (ATR): inhibited

SMILES: COCCN(CCOC)CCOc1ccc(C(=O)NC2C/C(=C\c3ccc(F)cc3)C(=O)/C(=C/c3ccc(F)cc3)C2)cc1 (stereo not drawn) [JCS148, N-(3,5-Bis((E)-4-fluorobenzylidene)-4-oxocyclohexyl)-4-(2-(bis(2-methoxyethyl)amino)ethoxy)-benzamide]
- PARP1 trapped on DNA lesions (PARP1; 0.3 μM): trapped
- Olaparib induced phosphorylation of Rad17 at Ser 645 and CHK1 at Ser 345 (ATR): inhibited

SMILES: CCN(CC)CCOc1ccc(C(=O)NC2C/C(=C\c3ccc(F)cc3)C(=O)/C(=C/c3ccc(F)cc3)C2)cc1 (stereo not drawn) [JCS149, N-(3,5-Bis((E)-4-fluorobenzylidene)-4-oxocyclohexyl)-4-(2-(diethylamino)ethoxy)benzamide]
- PARP1 trapped on DNA lesions (PARP1; 0.3 μM): trapped
- Olaparib induced phosphorylation of Rad17 at Ser 645 and CHK1 at Ser 345 (ATR): inhibited

SMILES: O=C1/C(=C/c2ccc(F)c(F)c2)CC(NC(=O)c2ccc(OCCNN3CCCCC3)cc2)C/C1=C\c1ccc(F)c(F)c1 (stereo not drawn) [JCS150, N-(3,5-Bis((E)-3,4-difluorobenzylidene)-4-oxocyclohexyl)-4-(2-(piperidin-1-ylamino)ethoxy)-benzamide]
- PARP1 trapped on DNA lesions (PARP1; 0.3 μM): trapped
- Olaparib induced phosphorylation of Rad17 at Ser 645 and CHK1 at Ser 345 (ATR): inhibited

SMILES: O=C1/C(=C/c2ccc(F)c(F)c2)CC(NC(=O)c2ccc(OCCN3CC4(COC4)C3)cc2)C/C1=C\c1ccc(F)c(F)c1 (stereo not drawn) [JCS151, 4-(2-(2-Oxa-6-azaspiro[3.3]heptan-6-yl)ethoxy)-N-(3,5-bis((E)-3,4-difluorobenzylidene)-4-oxocyclohexyl)benzamide]
- PARP1 trapped on DNA lesions (PARP1; 0.3 μM): trapped
- Olaparib induced phosphorylation of Rad17 at Ser 645 and CHK1 at Ser 345 (ATR): inhibited

SMILES: CCN(CC)CCOc1ccc(C(=O)NC2C/C(=C\c3cc(F)c(F)c(OC)c3)C(=O)/C(=C/c3cc(F)c(F)c(OC)c3)C2)cc1 (stereo not drawn) [JCS152, N-(3,5-Bis((E)-3,4-difluoro-5-methoxybenzylidene)-4-oxocyclohexyl)-4-(2-(diethylamino)-ethoxy)benzamide]
- PARP1 trapped on DNA lesions (PARP1; 0.3 μM): trapped
- Olaparib induced phosphorylation of Rad17 at Ser 645 and CHK1 at Ser 345 (ATR): inhibited

SMILES: COCCN(CCOC)CCOc1ccc(C(=O)NC2C/C(=C\c3cc(F)c(F)c(OC)c3)C(=O)/C(=C/c3cc(F)c(F)c(OC)c3)C2)cc1 (stereo not drawn) [JCS153, N-(3,5-Bis((E)-3,4-difluoro-5-methoxybenzylidene)-4-oxocyclohexyl)-4-(2-(bis(2-methoxyethyl)ami-no)ethoxy)benzamide]
- PARP1 trapped on DNA lesions (PARP1; 0.3 μM): trapped
- Olaparib induced phosphorylation of Rad17 at Ser 645 and CHK1 at Ser 345 (ATR): inhibited

SMILES: CCN1CCC[C@H]1CNc1ccc(C(=O)NC2C/C(=C\c3cc(F)c(F)cc3F)C(=O)/C(=C/c3cc(F)c(F)cc3F)C2)cc1 (stereo partly drawn) [JCS154, 4-((((S)-1-Ethylpyrrolidin-2-yl)methyl)amino)-N-(4-oxo-3,5-bis((E)-2,4,5-trifluorobenzylidene)-cyclohexyl)benzamide]
- PARP1 trapped on DNA lesions (PARP1; 0.3 μM): trapped
- Olaparib induced phosphorylation of Rad17 at Ser 645 and CHK1 at Ser 345 (ATR): inhibited

SMILES: COCCN(CCOC)CCOc1ccc(C(=O)NC2C/C(=C\c3cc(F)c(F)cc3F)C(=O)/C(=C/c3cc(F)c(F)cc3F)C2)cc1 (stereo not drawn) [JCS155, 4-(2-(Bis(2-methoxyethyl)amino)ethoxy)-N-(4-oxo-3,5-bis((E)-2,4,5-trifluorobenzylidene)cyclo-hexyl)benzamide]
- PARP1 trapped on DNA lesions (PARP1; 0.3 μM): trapped
- Olaparib induced phosphorylation of Rad17 at Ser 645 and CHK1 at Ser 345 (ATR): inhibited

SMILES: CCN(CC)CCOc1ccc(C(=O)NC2C/C(=C\c3cc(F)c(F)cc3F)C(=O)/C(=C/c3cc(F)c(F)cc3F)C2)cc1 (stereo not drawn) [JCS156, 4-(2-(Diethylamino)ethoxy)-N-(4-oxo-3,5-bis((E)-2,4,5-trifluorobenzylidene)cyclohexyl)benzamide]
- PARP1 trapped on DNA lesions (PARP1; 0.3 μM): trapped
- Olaparib induced phosphorylation of Rad17 at Ser 645 and CHK1 at Ser 345 (ATR): inhibited

SMILES: CCN1CCC[C@H]1CNc1ccc(C(=O)NC2C/C(=C\c3ccc(F)c(F)c3F)C(=O)/C(=C/c3ccc(F)c(F)c3F)C2)cc1 (stereo partly drawn) [JCS157, 4-((((S)-1-Ethylpyrrolidin-2-yl)methyl)amino)-N-(4-oxo-3,5-bis((E)-2,3,4-trifluorobenzylidene)-cyclohexyl)benzamide]
- PARP1 trapped on DNA lesions (PARP1; 0.3 μM): trapped
- Olaparib induced phosphorylation of Rad17 at Ser 645 and CHK1 at Ser 345 (ATR): inhibited

SMILES: COCCN(CCOC)CCOc1ccc(C(=O)NC2C/C(=C\c3ccc(F)c(F)c3F)C(=O)/C(=C/c3ccc(F)c(F)c3F)C2)cc1 (stereo not drawn) [JCS158, 4-(2-(Bis(2-methoxyethyl)amino)ethoxy)-N-(4-oxo-3,5-bis((E)-2,3,4-trifluorobenzylidene)cyclo-hexyl)benzamide]
- PARP1 trapped on DNA lesions (PARP1; 0.3 μM): trapped
- Olaparib induced phosphorylation of Rad17 at Ser 645 and CHK1 at Ser 345 (ATR): inhibited

SMILES: CCN(CC)CCOc1ccc(C(=O)NC2C/C(=C\c3ccc(F)c(F)c3F)C(=O)/C(=C/c3ccc(F)c(F)c3F)C2)cc1 (stereo not drawn) [JCS159, 4-(2-(Diethylamino)ethoxy)-N-(4-oxo-3,5-bis((E)-2,3,4-trifluorobenzylidene)cyclohexyl)benzamide]
- PARP1 trapped on DNA lesions (PARP1; 0.3 μM): trapped
- Olaparib induced phosphorylation of Rad17 at Ser 645 and CHK1 at Ser 345 (ATR): inhibited

SMILES: CN1CCC[C@H]1CNc1ccc(C(=O)NC2C/C(=C\c3ccc(F)c(F)c3)C(=O)/C(=C/c3ccc(F)c(F)c3)C2)cc1 (stereo partly drawn) [JCS160, N-(3,5-Bis((E)-3,4-difluorobenzylidene)-4-oxocyclohexyl)-4-((((S)-1-methylpyrrolidin-2-yl)methyl)-amino)benzamide]
- PARP1 trapped on DNA lesions (PARP1; 0.3 μM): trapped
- Olaparib induced phosphorylation of Rad17 at Ser 645 and CHK1 at Ser 345 (ATR): inhibited
